Measured data: PubChem BioAssay AID720505 (Drosophila RNAi Screening Center, 2013)

Test: 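Fly regulators or components of the CRAC channel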 (primary screen)
Cells: Drosophila S2R+ cells
Knock-down reagent: long dsRNA against Drosophila genes
Conditions: thapsigargin (2 µM) in calcium-free buffer to empty internal stores, then 2 mM calcium added back
Measured: 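Fluo-4 signal in 384-well plates read on a FLIPR after thapsigargin (2 µM, calcium-free) store depletion and 2 mM calcium add-back; unnormalised mean endpoint per well; screen run twice, selected wells retested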
Reading the numbers: calcium signal and retest calcium signal: higher = more calcium entry after store depletion
Rule for the call: 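Knock-downs counted as hits when calcium entry dropped relative to STIM1 positive and Rho1 negative controls present on each plate; roughly 1500 genes called, with reductions of differing size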
Calls: active = called as lowering calcium entry; inactive = not called
The deposit covers about 20,000 reagents; below is an unselected part of those with a known target gene and a result. In the full data, about 2,100 (10%) are marked active. 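Raw plate signals without normalisation; calls rest on control-based scores that were not deposited; replicate 2 separates called from uncalled poorly.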 A number with no mark means an inactive call. A plus sign joins genes that one reagent is predicted to hit. The record does not give: the amount of reagent, the time to read-out.

What did the screen give for Fkbp14 (GeneID 37449) [DRSC04615]?
calcium signal, replicate 1: 141; calcium signal, replicate 2: 98.1

With robl62A (GeneID 38170) [DRSC08153], how do the results read?
calcium signal, replicate 1: 111; calcium signal, replicate 2: 87

How did the screen score CG17349 (GeneID 35209) [DRSC02610]?
calcium signal, replicate 1: 183; calcium signal, replicate 2: 93

With CG17118 (GeneID 34478) [DRSC02579], what does the deposit list?
calcium signal, replicate 1: 76.9; calcium signal, replicate 2: 95.1

With rumpel (GeneID 31674) [DRSC18436], what does the deposit list?
calcium signal, replicate 1: 319; calcium signal, replicate 2: 77.5

With Ste:CG33238 + Ste:CG33241 + Ste:CG33236 + 11 more [DRSC19004], what does the deposit list?
calcium signal, replicate 1: 120; calcium signal, replicate 2: 102

With Ste:CG33238 + Ste:CG33241 + Ste:CG33236 + 11 more [DRSC21260], what does the deposit list?
calcium signal, replicate 1: 218; calcium signal, replicate 2: 84

What is on record for Mp20 (GeneID 36468) [DRSC07474]?
calcium signal, replicate 1: 110; calcium signal, replicate 2: 179

With CG34236 (GeneID 5740183) [DRSC05435], how do the results read?
calcium signal, replicate 1: 100; calcium signal, replicate 2: 161

With Mcr (GeneID 44071) [DRSC03366], what was measured?
calcium signal, replicate 1: 146; calcium signal, replicate 2: 238

What did the screen give for CG11362 (GeneID 37574) [DRSC04106]?
calcium signal, replicate 1: 71.6 (active); calcium signal, replicate 2: 194

What did the screen give for CG11362 (GeneID 37574) [DRSC22032]?
calcium signal, replicate 1: 109; calcium signal, replicate 2: 256

How did the screen score Gr58c (GeneID 37501) [DRSC04136]?
calcium signal, replicate 1: 187; calcium signal, replicate 2: 95.2

For Rsph1 (GeneID 34712) [DRSC02864], what does the deposit list?
calcium signal, replicate 1: 118; calcium signal, replicate 2: 82.3

What did the screen give for CG3630 (GeneID 31189) [DRSC18499]?
calcium signal, replicate 1: 120; calcium signal, replicate 2: 120

What is on record for CG10062 (GeneID 37224) [DRSC05960]?
calcium signal, replicate 1: 166; calcium signal, replicate 2: 101

How did the screen score CG10062 (GeneID 37224) [DRSC22535]?
calcium signal, replicate 1: 95.4; calcium signal, replicate 2: 151

For ntc (GeneID 38443) [DRSC08166], what does the deposit list?
calcium signal, replicate 1: 108; calcium signal, replicate 2: 101

With RtcB (GeneID 35220) [DRSC03280], what was measured?
calcium signal, replicate 1: 162; calcium signal, replicate 2: 88.6

For tfc (GeneID 38141) [DRSC08626], what was measured?
calcium signal, replicate 1: 96.4; calcium signal, replicate 2: 135

What did the screen give for tfc (GeneID 38141) [DRSC21704]?
calcium signal, replicate 1: 124; calcium signal, replicate 2: 69.1

What is on record for CG34106 (GeneID 4379891) [DRSC01578]?
calcium signal, replicate 1: 148; calcium signal, replicate 2: 88.2

What did the screen give for cv (GeneID 44510) [DRSC17833]?
calcium signal, replicate 1: 103 (active); calcium signal, replicate 2: 95.4

With CG16984 (GeneID 38322) [DRSC08500], what was measured?
calcium signal, replicate 1: 72.3; calcium signal, replicate 2: 96.7

For Hs6st (GeneID 42380) [DRSC14348], how do the results read?
calcium signal, replicate 1: 135; calcium signal, replicate 2: 90.5

With Hs6st (GeneID 42380) [DRSC15182], how do the results read?
calcium signal, replicate 1: 209; calcium signal, replicate 2: 196

Which result is listed for Hs6st (GeneID 42380) [DRSC15581]?
calcium signal, replicate 1: 148; calcium signal, replicate 2: 105; retest calcium signal, replicate 1: 8476; retest calcium signal, replicate 2: 124

What did the screen give for Hs6st (GeneID 42380) [DRSC21732]?
calcium signal, replicate 1: 116; calcium signal, replicate 2: 105

Looked up above.
For “calcium signal, replicate 2”, Hs6st (GeneID 42380) [DRSC21732] has 105
Value of Gr58c (GeneID 37501) [DRSC04136] under “calcium signal, replicate 1”: 187
